From US6995135B2, “Peptides and peptidomimetics having anti-proliferative activity and/or that augment nucleic acid damaging agents or treatments” (priority 2002, dated 2006)
Not every detail of the peptide structures is certain; ends, links or a residue may be inferred.

Test system: Jurkat cells
Assay: G2 checkpoint abrogation in bleomycin treated Jurkat cells, flow cytometry
Assay type: cell-based, human
Conditions: with 40 μg/ml bleomycine, 24 hours, dose with detectable G2 checkpoint abrogation

Row | SMILES | G2 abrogating dose
1 | N=C(N)NCCC[C@H](NC(=O)CNC(=O)[C@@H](N)Cc1ccc(O)cc1)C(=O)N[C@@H](CCCCN)C(=O)N[C@@H](CCCCN)C(=O)N[C@@H](CCCNC(=N)N)C(=O)N[C@@H](CCCNC(=N)N)C(=O)N[C@@H](CCC(N)=O)C(=O)N[C@@H](CCCNC(=N)N)C(=O)N[C@@H](CCCNC(=N)N)C(=O)N[C@@H](CCCNC(=N)N)C(=O)N[C@@H](CC1CCCCC1)C(=O)N[C@@H](Cc1c(F)c(F)c(F)c(F)c1F)C(=O)N[C@@H](CCCNC(=N)N)C(=O)N[C@@H](CO)C(=O)N1CCC[C@H]1C(=O)N[C@@H](CO)C(=O)N[C@@H](Cc1ccc(O)cc1)C(=O)N[C@@H](Cc1ccc(O)cc1)C(=O)O [CBP413, (l-Tyr)(l-Gly)(l-Arg)(l-Lys)(l-Lys)(l-Arg)(l-Arg)(l-Gln)(l-Arg)(l-Arg)(l-Arg)(l-Cha)(l-Phe-2,3,4,5,6-F)(l-Arg)(l-Ser)(l-Pro)(l-Ser)(l-Tyr)(l-Tyr)] | ≧1.56 μM
2 | N=C(N)NCCC[C@H](NC(=O)CNC(=O)[C@@H](N)Cc1ccc(O)cc1)C(=O)N[C@@H](CCCCN)C(=O)N[C@@H](CCCCN)C(=O)N[C@@H](CCCNC(=N)N)C(=O)N[C@@H](CCCNC(=N)N)C(=O)N[C@@H](CCC(N)=O)C(=O)N[C@@H](CCCNC(=N)N)C(=O)N[C@@H](CCCNC(=N)N)C(=O)N[C@@H](CCCNC(=N)N)C(=O)N[C@@H](CC1CCCCC1)C(=O)N[C@@H](Cc1c(F)c(F)c(F)c(F)c1F)C(=O)NCCCCCCCCCCC(=O)N[C@@H](Cc1ccc(O)cc1)C(=O)N[C@@H](Cc1ccc(O)cc1)C(=O)O [CBP440, (l-Tyr)(l-Gly)(l-Arg)(l-Lys)(l-Lys)(l-Arg)(l-Arg)(l-Gln)(l-Arg)(l-Arg)(l-Arg)(l-Cha)(l-Phe-2,3,4,5,6-F)(1-aminoundecanoic acid)(l-Tyr)(l-Tyr)] | ≧1.56 μM
